# PubChem BioAssay AID1259308 | NCATS – 2017
# Purpose: 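Knock-downs that increase output of a recombinant reporter protein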 (primary screen)
# Cell system: human HEK293 embryonic kidney cells stably expressing firefly luciferase (HEK-CMV-Luc2-Hygro)
# Reagent: single siRNA against human genes, 0.8 pmol siRNA per well
# Duration: 72 h
# Measurement: 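Reporter luminescence and viable-cell signal on separate replicate plates, given as percent of non-targeting control and median/MAD z-scores, plus per-cell luciferase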
# Reading the numbers: total luciferase, z-score and total luciferase, % of control: higher = more reporter protein produced; luciferase per cell, z-score: higher = more reporter output per viable cell; viable cells, % of control: higher = more viable cells
# Rule for the call: 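An siRNA counts as active if its total luciferase robust z-score exceeds 3; genes with two or more such siRNAs out of three were retested with fresh siRNAs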
# Calls: active = raised luciferase; inactive = no rise
# Here is one part, drawn at random, of about 59,000 deposited reagents. Of all reagents, about 1,510 (2.6%) got an active call. 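Calls use total luciferase alone and ignore viability, so some active siRNAs may act by altering cell number.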 A number with no mark means an inactive call.
target gene,PubChem SID,"total luciferase, z-score","total luciferase, % of control","luciferase per cell, z-score","viable cells, % of control"
SERPINB9 (serpin family B member 9),SID160714292,0.928,100,0.397,101
SERPINB9 (serpin family B member 9),SID160714294,1.4,110,1.15,90.7
SERPINB9 (serpin family B member 9),SID160731415,-1.24,57.2,-1.34,90.9
OTOF (otoferlin),SID160722087,-0.239,77.1,-0.234,91.7
OTOF (otoferlin),SID160722088,0.393,89.7,0.692,83.5
OTOF (otoferlin),SID160722089,-1.08,60.3,-0.757,82.3
PSME3IP1 (proteasome activator subunit 3 interacting protein 1),SID160749953,-0.243,77.1,-0.863,108
PSME3IP1 (proteasome activator subunit 3 interacting protein 1),SID160749954,-0.0529,80.8,-0.531,104
PSME3IP1 (proteasome activator subunit 3 interacting protein 1),SID160749955,-0.521,71.5,-0.374,88.2
POLR3H (RNA polymerase III subunit H),SID160730707,-1.15,58.9,-1.08,87.4
POLR3H (RNA polymerase III subunit H),SID160760532,-0.0484,80.9,-0.197,95.2
POLR3H (RNA polymerase III subunit H),SID160760533,-1.65,49.1,-1.66,85.1
KEAP1 (kelch like ECH associated protein 1),SID160723163,0.0855,83.6,-0.0665,95.1
KEAP1 (kelch like ECH associated protein 1),SID160723164,0.784,97.5,0.751,89.4
KEAP1 (kelch like ECH associated protein 1),SID160723165,2.62,134,3.07,66.7
"POLE3 (DNA polymerase epsilon 3, accessory subunit)",SID160731446,-0.124,79.4,-0.489,101
"POLE3 (DNA polymerase epsilon 3, accessory subunit)",SID160741578,0.815,98.1,1.91,66.3
"POLE3 (DNA polymerase epsilon 3, accessory subunit)",SID160741579,-0.255,76.8,-0.45,96.7
NCOA3 (nuclear receptor coactivator 3),SID160719711,0.588,93.6,0.6,89.3
NCOA3 (nuclear receptor coactivator 3),SID160719712,-0.785,66.3,-1.07,98.2
NCOA3 (nuclear receptor coactivator 3),SID160719715,1.38,109,0.917,95.9
GALNT3 (polypeptide N-acetylgalactosaminyltransferase 3),SID160730908,-0.539,71.2,0.108,77.3
GALNT3 (polypeptide N-acetylgalactosaminyltransferase 3),SID160769115,-1.97,42.8,-2.3,87.5
GALNT3 (polypeptide N-acetylgalactosaminyltransferase 3),SID160769134,-0.489,72.2,-0.48,91.5
LEPROT (leptin receptor overlapping transcript),SID160742090,-1.35,55.1,-1.77,98
LEPROT (leptin receptor overlapping transcript),SID160742091,0.795,97.7,0.534,94.9
LEPROT (leptin receptor overlapping transcript),SID160742092,0.252,86.9,-0.202,102
PRB4 (proline rich protein BstNI subfamily 4),SID160714860,-0.478,72.4,-0.82,100
PRB4 (proline rich protein BstNI subfamily 4),SID160724003,0.107,84,-0.136,97.3
PRB4 (proline rich protein BstNI subfamily 4),SID160724004,0.0748,83.4,-0.362,102
OBP2B (odorant binding protein 2B),SID160739449,-0.252,76.9,-0.13,88.9
OBP2B (odorant binding protein 2B),SID160739450,-1.35,55,-1.23,85
OBP2B (odorant binding protein 2B),SID160739451,-1.66,48.9,-0.0811,55.8
ADK (adenosine kinase),SID160714607,-0.175,78.4,0.0445,86.6
ADK (adenosine kinase),SID160714619,2.19,125,1.52,93.8
ADK (adenosine kinase),SID160714629,-0.367,74.6,-1.13,112
UTP25 (UTP25 small subunit processome component),SID160738294,-1.24,57.2,-0.566,74.1
UTP25 (UTP25 small subunit processome component),SID160738295,1.11,104,0.927,91
UTP25 (UTP25 small subunit processome component),SID160738296,-1.49,52.3,-1.85,95.1

Only “luciferase per cell, z-score”, for 2 of the entries above:
PSME3IP1 (proteasome activator subunit 3 interacting protein 1) [SID160749953]: -0.863
PSME3IP1 (proteasome activator subunit 3 interacting protein 1) [SID160749954]: -0.531
